Laboratory results as given in the supplement of paper PMC7666118.
Some of the results follow.

Sequences of proteins named here, by UniProt entry; tags and fusion partners are left off. A change or cut given only in a name is not applied to a line headed by its entry.
UniProt Q96BJ3: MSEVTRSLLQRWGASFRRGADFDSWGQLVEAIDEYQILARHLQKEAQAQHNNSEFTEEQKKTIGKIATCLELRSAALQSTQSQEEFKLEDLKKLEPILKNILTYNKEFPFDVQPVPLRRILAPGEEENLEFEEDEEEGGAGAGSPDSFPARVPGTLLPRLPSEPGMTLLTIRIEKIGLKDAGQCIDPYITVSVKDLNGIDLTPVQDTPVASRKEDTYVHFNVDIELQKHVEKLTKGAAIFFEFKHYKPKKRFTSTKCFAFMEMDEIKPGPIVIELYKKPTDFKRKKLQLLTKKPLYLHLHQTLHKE
UniProt P51649: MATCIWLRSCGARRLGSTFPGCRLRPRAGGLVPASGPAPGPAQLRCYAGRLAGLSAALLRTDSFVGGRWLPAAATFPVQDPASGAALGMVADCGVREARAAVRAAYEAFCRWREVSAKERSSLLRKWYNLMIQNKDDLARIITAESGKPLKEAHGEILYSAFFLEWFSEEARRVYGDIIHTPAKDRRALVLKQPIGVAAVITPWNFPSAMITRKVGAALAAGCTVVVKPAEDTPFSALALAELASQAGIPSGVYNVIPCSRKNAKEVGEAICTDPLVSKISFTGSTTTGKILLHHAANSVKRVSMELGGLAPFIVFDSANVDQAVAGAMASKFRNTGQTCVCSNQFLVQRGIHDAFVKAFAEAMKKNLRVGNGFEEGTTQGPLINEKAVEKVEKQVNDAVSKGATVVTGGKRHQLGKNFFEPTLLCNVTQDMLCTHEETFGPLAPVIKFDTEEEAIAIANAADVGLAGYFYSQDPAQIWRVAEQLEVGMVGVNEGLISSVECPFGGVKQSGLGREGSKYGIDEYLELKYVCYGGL
UniProt P08133: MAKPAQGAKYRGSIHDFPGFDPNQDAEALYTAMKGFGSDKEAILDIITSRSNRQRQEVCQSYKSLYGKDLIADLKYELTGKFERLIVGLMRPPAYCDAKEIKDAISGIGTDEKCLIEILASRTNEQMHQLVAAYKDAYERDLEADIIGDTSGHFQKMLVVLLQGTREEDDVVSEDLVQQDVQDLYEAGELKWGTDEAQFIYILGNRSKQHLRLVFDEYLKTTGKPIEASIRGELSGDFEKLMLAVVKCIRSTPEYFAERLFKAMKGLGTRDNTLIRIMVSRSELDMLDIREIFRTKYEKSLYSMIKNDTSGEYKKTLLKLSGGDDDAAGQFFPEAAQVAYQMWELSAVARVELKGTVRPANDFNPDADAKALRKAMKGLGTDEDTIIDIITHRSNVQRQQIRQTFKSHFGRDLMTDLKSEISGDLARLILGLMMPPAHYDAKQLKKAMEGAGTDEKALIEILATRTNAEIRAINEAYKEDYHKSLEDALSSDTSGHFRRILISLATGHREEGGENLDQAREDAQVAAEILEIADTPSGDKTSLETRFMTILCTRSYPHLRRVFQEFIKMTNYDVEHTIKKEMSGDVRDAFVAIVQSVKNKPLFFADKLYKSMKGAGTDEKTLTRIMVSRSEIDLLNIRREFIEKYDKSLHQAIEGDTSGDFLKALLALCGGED
UniProt O14497, whole entry: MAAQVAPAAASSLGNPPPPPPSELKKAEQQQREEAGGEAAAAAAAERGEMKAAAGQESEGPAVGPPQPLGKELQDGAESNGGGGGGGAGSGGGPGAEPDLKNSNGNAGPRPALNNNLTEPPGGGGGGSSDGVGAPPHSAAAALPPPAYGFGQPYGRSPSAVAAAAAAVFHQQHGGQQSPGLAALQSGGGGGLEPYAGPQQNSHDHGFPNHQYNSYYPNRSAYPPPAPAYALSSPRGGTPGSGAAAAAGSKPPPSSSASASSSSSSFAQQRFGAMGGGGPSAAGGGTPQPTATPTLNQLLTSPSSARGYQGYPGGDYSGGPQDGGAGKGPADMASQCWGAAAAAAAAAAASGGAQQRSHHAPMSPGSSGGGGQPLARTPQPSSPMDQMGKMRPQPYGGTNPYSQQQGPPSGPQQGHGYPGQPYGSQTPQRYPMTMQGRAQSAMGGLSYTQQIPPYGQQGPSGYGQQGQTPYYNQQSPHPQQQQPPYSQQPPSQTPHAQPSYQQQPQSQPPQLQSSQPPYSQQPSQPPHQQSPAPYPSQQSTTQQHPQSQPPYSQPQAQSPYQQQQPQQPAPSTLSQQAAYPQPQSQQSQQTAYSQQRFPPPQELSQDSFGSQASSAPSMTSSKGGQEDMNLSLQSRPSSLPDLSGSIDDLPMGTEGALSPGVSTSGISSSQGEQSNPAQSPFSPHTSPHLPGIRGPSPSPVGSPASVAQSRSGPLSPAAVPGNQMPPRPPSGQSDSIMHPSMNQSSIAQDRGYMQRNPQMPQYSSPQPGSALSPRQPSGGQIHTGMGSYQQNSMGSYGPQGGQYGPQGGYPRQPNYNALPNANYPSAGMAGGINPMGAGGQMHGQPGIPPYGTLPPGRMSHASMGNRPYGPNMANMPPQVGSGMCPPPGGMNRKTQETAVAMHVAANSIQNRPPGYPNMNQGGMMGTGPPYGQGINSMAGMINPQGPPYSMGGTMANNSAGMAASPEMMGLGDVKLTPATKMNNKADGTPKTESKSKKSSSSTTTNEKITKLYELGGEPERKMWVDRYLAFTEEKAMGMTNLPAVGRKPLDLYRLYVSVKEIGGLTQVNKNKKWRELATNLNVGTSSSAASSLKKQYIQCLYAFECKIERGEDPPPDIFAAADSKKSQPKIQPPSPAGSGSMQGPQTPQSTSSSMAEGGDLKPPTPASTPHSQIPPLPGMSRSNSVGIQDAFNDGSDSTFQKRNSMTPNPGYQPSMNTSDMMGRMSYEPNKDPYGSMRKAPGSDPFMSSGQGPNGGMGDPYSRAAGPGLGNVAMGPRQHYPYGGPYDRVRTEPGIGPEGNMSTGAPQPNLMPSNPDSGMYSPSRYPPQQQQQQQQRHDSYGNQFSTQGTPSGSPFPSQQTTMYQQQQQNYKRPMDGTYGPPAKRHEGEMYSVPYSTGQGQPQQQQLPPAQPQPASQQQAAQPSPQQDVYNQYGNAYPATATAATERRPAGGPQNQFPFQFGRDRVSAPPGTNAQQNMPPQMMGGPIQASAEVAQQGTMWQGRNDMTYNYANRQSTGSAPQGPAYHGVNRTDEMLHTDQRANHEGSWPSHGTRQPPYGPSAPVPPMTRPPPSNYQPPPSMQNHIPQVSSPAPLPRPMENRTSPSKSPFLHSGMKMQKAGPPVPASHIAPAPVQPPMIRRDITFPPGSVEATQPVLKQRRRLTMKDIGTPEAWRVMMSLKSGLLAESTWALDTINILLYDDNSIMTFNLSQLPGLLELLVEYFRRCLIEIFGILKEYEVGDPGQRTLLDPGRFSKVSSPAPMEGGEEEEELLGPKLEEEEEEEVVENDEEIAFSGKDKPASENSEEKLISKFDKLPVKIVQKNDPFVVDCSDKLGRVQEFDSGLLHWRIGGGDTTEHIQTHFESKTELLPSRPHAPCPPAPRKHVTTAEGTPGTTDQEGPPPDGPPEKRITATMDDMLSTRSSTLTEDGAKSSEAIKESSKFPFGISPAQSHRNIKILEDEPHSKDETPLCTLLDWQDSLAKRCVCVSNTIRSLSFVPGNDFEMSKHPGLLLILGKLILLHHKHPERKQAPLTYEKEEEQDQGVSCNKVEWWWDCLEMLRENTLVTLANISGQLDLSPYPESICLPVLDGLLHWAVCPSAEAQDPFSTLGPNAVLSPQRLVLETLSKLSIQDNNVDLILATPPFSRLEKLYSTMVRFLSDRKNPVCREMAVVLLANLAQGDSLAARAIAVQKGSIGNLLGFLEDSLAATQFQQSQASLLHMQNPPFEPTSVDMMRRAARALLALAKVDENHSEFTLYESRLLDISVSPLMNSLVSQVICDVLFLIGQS
UniProt Q9HC16: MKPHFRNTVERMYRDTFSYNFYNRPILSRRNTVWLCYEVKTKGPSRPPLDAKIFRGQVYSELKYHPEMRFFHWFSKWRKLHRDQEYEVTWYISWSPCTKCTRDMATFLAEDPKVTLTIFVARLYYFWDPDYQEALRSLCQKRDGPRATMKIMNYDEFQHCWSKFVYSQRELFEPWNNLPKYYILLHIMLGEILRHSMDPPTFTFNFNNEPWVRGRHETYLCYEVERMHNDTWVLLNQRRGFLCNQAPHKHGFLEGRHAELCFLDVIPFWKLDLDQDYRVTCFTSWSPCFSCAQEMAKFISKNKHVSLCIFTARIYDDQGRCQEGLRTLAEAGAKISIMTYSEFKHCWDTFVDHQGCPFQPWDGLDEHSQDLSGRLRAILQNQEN
UniProt Q9NRZ7: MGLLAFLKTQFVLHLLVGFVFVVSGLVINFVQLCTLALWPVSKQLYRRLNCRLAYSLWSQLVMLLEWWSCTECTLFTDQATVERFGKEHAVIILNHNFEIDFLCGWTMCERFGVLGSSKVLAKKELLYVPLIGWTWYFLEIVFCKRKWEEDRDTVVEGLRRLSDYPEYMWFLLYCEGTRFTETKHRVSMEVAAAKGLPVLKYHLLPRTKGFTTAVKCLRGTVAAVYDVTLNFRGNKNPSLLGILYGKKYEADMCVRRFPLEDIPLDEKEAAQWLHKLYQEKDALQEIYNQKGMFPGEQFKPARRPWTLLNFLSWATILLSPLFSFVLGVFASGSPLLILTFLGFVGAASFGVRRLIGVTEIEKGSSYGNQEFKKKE
UniProt Q53H12: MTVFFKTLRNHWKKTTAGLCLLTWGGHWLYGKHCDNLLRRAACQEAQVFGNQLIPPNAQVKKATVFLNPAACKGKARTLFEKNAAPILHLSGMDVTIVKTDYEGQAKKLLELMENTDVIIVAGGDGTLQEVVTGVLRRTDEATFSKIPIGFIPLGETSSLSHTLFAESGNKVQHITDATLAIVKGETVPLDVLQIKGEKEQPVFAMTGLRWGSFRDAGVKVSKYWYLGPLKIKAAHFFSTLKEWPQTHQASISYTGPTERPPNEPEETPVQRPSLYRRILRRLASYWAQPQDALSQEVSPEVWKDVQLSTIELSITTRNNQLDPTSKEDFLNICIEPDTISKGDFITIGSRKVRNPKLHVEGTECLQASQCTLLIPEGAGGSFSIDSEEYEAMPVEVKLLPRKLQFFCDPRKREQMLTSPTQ
UniProt P56377: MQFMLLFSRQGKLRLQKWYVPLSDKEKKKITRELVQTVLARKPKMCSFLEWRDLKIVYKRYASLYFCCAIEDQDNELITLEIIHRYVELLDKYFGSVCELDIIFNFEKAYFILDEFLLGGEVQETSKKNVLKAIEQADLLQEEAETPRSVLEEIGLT
UniProt Q9UHB7: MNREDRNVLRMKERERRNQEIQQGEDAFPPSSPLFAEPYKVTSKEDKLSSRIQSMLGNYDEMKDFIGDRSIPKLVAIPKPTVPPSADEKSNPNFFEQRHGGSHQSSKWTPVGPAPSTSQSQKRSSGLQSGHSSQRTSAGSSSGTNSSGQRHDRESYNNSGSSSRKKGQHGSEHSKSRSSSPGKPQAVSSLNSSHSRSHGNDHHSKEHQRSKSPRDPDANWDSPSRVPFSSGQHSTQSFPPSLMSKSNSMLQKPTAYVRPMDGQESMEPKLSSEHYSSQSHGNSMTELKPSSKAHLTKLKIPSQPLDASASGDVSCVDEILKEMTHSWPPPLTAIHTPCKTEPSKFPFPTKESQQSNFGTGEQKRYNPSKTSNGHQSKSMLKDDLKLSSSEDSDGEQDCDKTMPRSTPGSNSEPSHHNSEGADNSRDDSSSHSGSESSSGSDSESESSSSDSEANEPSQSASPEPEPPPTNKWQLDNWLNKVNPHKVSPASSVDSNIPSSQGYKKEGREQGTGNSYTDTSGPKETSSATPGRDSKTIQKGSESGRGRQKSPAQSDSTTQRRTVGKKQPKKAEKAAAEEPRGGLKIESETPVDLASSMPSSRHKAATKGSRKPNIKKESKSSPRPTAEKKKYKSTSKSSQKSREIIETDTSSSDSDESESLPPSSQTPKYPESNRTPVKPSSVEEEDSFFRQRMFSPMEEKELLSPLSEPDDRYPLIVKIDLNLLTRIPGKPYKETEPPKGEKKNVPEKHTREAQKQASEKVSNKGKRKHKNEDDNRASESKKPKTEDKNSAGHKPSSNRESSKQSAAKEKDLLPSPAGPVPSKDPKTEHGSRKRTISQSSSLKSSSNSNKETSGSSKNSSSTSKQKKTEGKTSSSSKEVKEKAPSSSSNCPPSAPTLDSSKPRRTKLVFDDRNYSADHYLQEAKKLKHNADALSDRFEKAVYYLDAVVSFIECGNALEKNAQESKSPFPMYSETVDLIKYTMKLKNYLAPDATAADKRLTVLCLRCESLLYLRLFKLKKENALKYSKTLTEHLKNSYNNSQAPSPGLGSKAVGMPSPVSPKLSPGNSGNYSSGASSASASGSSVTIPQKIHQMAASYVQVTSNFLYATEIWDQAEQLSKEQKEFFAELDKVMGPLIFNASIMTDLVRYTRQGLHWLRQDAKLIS
UniProt Q9Y294, whole entry: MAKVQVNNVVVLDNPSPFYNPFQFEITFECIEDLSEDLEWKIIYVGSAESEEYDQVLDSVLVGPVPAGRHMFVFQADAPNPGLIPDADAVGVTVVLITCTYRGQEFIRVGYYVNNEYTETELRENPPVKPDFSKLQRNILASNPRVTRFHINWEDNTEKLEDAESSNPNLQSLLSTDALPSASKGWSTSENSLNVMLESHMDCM

compound: COc1ccc(Cn2ccc3cc(C)c(C(=O)NO)cc32)cc1; experiment: dose-dependent thermal stabilisation call (2D-TPP, DLPTP, 10% FDR) (binary (1 = stabilised)); higher = stabilised by the compound; settings: system: HL-60 intact cells; concentration range 0.04-10 µM
Experimental: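 2D thermal proteome profiling in intact HL-60 cells treated with BRD-3811 (0, 0.04, 0.29, 2, 10 uM) for 90 min at 37 C, then heated 3 min at one of 12 temperatures (42-63.9 C). Soluble protein was quantified by TMT10 MS. The value is the DLPTP call of the paper: dose-dependent thermal stabilisation over all temperatures at 10% FDR (F-test of a dose-response against a flat model); one experiment, one call per tested protein.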

Row | Target | dose-dependent thermal stabilisation call
1 | AIDA (UniProt Q96BJ3) | inactive: 0
2 | ARPC2 (UniProt O15144) | inactive: 0
3 | APOOL (UniProt Q6UXV4) | inactive: 0
4 | ALDH5A1 (UniProt P51649) | inactive: 0
5 | ATG5 (UniProt Q9H1Y0) | inactive: 0
6 | ALG13 (UniProt Q9NP73) | inactive: 0
7 | AK2 (UniProt P54819) | inactive: 0
8 | ANXA6 (UniProt P08133) | inactive: 0
9 | ARHGEF7 (UniProt Q14155) | inactive: 0
10 | ARHGEF2 (UniProt Q92974) | inactive: 0
11 | AHCYL1 (UniProt O43865) | inactive: 0
12 | ARMCX3 (UniProt Q9UH62) | inactive: 0
13 | ARHGAP4 (UniProt P98171) | inactive: 0
14 | ARID1A (UniProt O14497) | inactive: 0
15 | APOL2 (UniProt Q9BQE5) | inactive: 0
16 | ATF2 (UniProt P15336) | inactive: 0
17 | ARAP1 (UniProt Q96P48) | inactive: 0
18 | ARHGAP15 (UniProt Q53QZ3) | inactive: 0
19 | APOBEC3G (UniProt Q9HC16) | inactive: 0
20 | AGPAT3 (UniProt Q9NRZ7) | inactive: 0

Row | Target | dose-dependent thermal stabilisation call
21 | ARPC1A (UniProt Q92747) | inactive: 0
22 | ARG1 (UniProt P05089) | inactive: 0
23 | AP2A2 (UniProt O94973) | inactive: 0
24 | ARPC4 (UniProt P59998) | inactive: 0
25 | AGK (UniProt Q53H12) | inactive: 0
26 | ATG9A (UniProt Q7Z3C6) | inactive: 0
27 | ARPC1B (UniProt O15143) | inactive: 0
28 | AGPAT5 (UniProt Q9NUQ2) | inactive: 0
29 | APOB (UniProt P04114) | inactive: 0
30 | AKT2 (UniProt P31751) | inactive: 0
31 | ALG11 (UniProt Q2TAA5) | inactive: 0
32 | AP1S2 (UniProt P56377) | inactive: 0
33 | AKAP9 (UniProt Q99996) | inactive: 0
34 | ARHGEF18 (UniProt Q6ZSZ5) | inactive: 0
35 | AFF4 (UniProt Q9UHB7) | inactive: 0
36 | AP2B1 (UniProt P63010) | inactive: 0
37 | ASF1A (UniProt Q9Y294) | inactive: 0
38 | ANAPC2 (UniProt Q9UJX6) | inactive: 0
39 | ALDH6A1 (UniProt Q02252) | inactive: 0
40 | APOA1BP (UniProt Q8NCW5) | inactive: 0

From no. 11 up to 18, as listed above:
Row | Target | dose-dependent thermal stabilisation call
11 | AHCYL1 (UniProt O43865) | inactive: 0
12 | ARMCX3 (UniProt Q9UH62) | inactive: 0
13 | ARHGAP4 (UniProt P98171) | inactive: 0
14 | ARID1A (UniProt O14497) | inactive: 0
15 | APOL2 (UniProt Q9BQE5) | inactive: 0
16 | ATF2 (UniProt P15336) | inactive: 0
17 | ARAP1 (UniProt Q96P48) | inactive: 0
18 | ARHGAP15 (UniProt Q53QZ3) | inactive: 0
